US20170210824A1
No constants are given. Whether binding was seen depends on the method and setting. Some entries that bind do so weakly or less than the wild type. Tags and fused reporters may be left off the sequences shown.

The chains behind the UniProt entries cited, without tags or fusion partners. Residues count along the entry.
UniProt P0AGE9, residues 2-289: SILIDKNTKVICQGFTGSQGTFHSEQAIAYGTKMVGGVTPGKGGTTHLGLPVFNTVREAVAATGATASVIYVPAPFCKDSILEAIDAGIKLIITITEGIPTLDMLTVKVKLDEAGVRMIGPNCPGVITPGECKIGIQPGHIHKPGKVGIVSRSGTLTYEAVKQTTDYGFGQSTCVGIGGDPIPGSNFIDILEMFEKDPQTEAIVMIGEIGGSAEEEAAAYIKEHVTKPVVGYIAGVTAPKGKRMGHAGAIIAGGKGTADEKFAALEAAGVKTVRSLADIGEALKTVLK

Key:
[1] = biological target: bacterial SCS (succinyl-CoA synthetase, E. coli), 3-pHis form (E. coli) (UniProt P0AGE9); experiment: immunoblot of E. coli lysate
[2] = biological target: bacterial SCS (succinyl-CoA synthetase, E. coli), 3-pHis form (E. coli) (UniProt P0AGE9); experiment: slot blot and immunoblot of E. coli lysate

B1: 3-pHis mAb SC44-8 (antibody, V domains shown)
VH: ESGRGLVQPGGSLTLTCTASGFSIDSYGFSWVRQAPGKGLEHIGYLTAGGRAFYASWAKSRSTITRNTNENTVTLKMTSLTAADTATYFCAKLGSGNPVAIWGPGTLVTVSS
VL: DPVMTPTPSFTSAAVGGTVTINCQSSQSVWRNKNLAWYQQKPGQPPKRLIYAIATLDSGVPSRFSGSGSGTQFTLTISDVQCDDAATYYCVGHYGSENDAYYAFGGGTEVVVKG
With B1 the binding [1] was “binds” and the binding [2] was “binds”.
